Source: the supplement of paper PMC11732987, “Enantioselective OTUD7B fragment discovery through chemoproteomics screening and high-throughput optimisation” (Communications Chemistry, 2025)
The other results are listed elsewhere or left out. The data scatter; read single values as rough.

Chains of the proteins cited; added tags and fusions are not shown. Lines headed by an entry give the natural chain unless they say otherwise; changes in a name come on top.
UniProt Q14684: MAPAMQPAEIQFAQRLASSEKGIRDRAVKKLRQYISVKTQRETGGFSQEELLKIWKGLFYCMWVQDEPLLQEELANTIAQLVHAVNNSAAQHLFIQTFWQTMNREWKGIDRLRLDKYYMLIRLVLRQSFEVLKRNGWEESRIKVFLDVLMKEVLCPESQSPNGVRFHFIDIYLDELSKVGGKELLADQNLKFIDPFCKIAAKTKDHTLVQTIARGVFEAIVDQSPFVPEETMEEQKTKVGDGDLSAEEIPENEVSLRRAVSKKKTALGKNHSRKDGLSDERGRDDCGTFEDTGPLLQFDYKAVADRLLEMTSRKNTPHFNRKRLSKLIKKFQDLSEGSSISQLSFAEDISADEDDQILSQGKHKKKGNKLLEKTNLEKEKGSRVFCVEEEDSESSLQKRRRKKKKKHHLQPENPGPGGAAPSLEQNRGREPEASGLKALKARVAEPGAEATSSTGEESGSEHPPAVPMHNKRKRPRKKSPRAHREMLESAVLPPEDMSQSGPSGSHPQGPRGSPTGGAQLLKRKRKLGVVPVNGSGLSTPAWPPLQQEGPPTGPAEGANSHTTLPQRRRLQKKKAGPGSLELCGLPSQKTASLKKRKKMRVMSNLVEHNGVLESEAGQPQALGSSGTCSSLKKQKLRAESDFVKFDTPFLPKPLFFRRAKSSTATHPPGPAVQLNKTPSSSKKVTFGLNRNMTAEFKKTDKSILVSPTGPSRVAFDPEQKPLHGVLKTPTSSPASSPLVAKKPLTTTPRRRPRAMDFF
UniProt Q9NZJ4: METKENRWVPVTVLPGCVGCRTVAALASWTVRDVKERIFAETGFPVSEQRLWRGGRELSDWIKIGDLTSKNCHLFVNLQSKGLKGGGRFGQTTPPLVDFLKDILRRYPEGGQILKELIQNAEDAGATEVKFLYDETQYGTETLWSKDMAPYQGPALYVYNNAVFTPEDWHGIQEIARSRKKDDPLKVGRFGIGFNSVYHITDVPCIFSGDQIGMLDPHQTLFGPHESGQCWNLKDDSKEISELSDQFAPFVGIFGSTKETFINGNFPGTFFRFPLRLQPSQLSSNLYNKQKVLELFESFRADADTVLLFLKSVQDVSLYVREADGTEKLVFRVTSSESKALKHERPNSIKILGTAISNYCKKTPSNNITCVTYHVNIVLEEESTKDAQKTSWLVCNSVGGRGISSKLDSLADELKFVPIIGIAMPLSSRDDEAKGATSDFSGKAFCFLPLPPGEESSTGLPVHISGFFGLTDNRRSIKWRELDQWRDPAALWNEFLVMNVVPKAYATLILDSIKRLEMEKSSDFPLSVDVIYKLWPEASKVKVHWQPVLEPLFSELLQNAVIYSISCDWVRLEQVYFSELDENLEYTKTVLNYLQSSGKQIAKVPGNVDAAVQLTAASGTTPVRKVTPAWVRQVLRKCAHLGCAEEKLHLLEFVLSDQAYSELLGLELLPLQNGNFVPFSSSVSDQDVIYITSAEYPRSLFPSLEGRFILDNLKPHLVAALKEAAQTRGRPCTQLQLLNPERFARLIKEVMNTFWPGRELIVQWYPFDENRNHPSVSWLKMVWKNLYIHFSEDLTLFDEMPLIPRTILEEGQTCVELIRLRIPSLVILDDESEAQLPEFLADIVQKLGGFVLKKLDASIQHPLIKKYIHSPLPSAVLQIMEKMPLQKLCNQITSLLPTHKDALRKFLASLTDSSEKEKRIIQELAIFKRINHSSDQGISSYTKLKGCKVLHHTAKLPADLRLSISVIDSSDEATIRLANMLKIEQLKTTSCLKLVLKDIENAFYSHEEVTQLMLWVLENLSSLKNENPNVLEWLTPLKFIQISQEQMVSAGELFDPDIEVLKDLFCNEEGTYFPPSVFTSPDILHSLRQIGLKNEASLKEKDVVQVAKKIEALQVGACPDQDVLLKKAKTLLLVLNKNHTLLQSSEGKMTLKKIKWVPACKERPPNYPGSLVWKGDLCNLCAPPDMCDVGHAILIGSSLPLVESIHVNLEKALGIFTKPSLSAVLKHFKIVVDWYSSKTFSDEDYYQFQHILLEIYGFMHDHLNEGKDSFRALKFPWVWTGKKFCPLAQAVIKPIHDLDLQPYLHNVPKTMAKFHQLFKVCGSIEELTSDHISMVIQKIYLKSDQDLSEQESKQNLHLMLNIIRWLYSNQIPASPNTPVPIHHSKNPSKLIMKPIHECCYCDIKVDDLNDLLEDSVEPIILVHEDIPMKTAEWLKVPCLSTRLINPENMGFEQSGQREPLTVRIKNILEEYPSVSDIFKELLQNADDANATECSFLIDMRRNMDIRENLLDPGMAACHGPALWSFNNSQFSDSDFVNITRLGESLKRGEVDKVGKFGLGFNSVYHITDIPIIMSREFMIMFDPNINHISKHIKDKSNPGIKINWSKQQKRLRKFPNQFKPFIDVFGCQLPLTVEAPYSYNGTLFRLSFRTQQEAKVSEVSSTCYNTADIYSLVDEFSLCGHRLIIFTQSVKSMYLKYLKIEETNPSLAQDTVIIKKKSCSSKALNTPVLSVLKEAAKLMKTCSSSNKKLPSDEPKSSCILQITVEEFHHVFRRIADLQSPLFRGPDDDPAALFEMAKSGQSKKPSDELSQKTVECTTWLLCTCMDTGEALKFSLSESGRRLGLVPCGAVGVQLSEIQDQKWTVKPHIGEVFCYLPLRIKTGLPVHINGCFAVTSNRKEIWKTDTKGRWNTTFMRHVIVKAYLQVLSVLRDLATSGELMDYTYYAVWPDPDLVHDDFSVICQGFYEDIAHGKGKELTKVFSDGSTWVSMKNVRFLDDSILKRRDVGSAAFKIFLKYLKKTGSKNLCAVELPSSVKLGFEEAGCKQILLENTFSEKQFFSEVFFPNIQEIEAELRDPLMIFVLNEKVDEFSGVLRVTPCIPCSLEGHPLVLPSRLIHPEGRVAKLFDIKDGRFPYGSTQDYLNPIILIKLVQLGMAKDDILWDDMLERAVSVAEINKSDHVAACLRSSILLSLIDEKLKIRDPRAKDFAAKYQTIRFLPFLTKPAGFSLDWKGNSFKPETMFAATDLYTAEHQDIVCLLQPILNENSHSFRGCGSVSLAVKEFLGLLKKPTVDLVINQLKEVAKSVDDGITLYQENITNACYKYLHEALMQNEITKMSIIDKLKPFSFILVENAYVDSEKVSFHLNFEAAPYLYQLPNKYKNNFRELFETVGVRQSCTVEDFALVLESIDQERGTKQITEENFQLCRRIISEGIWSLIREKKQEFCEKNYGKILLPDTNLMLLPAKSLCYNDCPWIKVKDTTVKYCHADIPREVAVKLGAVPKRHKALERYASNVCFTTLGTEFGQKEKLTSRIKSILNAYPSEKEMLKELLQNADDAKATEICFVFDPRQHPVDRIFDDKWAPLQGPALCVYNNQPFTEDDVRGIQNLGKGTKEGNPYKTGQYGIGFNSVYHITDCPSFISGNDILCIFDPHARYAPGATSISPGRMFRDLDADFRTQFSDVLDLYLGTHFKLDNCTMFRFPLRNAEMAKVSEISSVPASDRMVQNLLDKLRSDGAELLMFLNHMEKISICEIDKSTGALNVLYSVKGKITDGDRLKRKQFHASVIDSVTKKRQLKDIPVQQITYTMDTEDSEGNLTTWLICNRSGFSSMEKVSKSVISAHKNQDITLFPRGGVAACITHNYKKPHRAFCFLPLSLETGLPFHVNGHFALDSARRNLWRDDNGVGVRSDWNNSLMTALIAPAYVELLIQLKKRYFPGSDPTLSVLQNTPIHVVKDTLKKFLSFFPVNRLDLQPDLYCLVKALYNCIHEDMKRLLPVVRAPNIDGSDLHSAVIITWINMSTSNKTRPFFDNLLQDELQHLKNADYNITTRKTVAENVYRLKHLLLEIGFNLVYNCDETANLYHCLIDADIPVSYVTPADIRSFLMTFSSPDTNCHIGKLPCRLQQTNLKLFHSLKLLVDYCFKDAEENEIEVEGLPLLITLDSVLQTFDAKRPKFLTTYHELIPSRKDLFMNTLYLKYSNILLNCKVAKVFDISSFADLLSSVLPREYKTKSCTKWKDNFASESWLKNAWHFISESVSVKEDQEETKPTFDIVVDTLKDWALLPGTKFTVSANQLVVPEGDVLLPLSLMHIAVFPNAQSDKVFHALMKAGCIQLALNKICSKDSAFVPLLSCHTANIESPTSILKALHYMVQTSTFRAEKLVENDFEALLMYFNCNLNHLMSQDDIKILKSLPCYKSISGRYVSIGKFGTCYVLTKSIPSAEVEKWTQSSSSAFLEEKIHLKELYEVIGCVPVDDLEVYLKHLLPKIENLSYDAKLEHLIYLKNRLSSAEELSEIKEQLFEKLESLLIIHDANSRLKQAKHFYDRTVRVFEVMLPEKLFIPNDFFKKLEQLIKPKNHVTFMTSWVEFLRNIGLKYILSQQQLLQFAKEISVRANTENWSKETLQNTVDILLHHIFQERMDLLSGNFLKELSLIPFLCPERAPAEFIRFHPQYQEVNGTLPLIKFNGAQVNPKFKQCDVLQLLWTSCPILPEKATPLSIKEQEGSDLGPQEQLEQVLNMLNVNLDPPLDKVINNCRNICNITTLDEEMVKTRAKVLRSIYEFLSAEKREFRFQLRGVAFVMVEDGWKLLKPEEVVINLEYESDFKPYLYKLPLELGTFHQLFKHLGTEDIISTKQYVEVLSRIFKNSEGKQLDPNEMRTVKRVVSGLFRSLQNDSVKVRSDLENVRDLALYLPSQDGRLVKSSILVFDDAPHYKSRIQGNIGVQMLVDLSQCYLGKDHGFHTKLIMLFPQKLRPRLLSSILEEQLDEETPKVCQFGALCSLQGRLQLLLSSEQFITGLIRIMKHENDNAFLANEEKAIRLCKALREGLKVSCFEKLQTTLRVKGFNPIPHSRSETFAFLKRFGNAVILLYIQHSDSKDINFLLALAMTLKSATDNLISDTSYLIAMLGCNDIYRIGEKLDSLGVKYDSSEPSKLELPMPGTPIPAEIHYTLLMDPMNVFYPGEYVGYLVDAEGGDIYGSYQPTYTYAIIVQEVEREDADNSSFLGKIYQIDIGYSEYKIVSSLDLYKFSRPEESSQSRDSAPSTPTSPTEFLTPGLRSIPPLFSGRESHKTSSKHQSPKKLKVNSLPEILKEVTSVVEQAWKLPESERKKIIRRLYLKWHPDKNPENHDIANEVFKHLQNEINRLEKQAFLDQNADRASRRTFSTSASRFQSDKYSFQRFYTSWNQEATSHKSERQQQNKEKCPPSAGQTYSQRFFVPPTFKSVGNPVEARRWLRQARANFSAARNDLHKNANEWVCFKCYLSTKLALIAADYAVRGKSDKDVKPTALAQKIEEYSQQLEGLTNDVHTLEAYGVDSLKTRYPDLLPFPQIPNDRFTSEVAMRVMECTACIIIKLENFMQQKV
UniProt Q9NZ71: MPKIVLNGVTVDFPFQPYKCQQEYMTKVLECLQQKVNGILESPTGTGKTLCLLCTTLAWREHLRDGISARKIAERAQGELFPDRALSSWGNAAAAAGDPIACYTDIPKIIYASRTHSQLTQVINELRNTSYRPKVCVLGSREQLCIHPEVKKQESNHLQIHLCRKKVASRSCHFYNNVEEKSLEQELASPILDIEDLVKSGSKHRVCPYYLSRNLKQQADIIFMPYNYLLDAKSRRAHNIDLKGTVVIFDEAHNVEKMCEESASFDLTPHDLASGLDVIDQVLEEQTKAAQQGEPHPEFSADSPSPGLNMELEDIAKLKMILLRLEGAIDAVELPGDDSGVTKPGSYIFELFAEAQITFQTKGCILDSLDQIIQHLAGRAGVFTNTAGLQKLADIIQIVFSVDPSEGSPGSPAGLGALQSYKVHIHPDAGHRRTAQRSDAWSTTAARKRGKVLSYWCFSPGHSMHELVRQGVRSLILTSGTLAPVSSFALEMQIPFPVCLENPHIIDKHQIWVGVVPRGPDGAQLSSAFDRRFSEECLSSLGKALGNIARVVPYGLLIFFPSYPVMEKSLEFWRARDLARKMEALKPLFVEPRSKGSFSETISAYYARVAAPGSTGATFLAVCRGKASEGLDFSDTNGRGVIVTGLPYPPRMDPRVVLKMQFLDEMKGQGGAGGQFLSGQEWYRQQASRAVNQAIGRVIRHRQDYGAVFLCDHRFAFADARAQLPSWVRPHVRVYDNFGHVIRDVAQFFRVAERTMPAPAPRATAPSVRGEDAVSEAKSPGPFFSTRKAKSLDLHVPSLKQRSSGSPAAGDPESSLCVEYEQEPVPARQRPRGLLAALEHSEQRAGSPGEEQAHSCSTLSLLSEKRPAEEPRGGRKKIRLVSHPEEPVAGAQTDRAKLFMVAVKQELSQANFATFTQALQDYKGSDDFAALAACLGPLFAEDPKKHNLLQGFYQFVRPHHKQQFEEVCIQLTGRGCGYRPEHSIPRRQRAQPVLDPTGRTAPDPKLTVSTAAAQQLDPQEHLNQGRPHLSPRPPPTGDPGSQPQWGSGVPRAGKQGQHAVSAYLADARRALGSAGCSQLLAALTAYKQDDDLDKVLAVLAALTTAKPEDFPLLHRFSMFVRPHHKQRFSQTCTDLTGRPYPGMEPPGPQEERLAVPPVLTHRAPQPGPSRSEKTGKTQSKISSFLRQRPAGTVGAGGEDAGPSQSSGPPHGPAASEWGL

How the values were obtained:
[1] = compound: ClCC(=O)N[C@@H]1CCCc2ccccc12; experiment: log2 mean competition ratio of IA-DTB cysteine labelling (DMSO/compound) (log2 ratio); higher = stronger cysteine engagement by compound; settings: treatment time: 4 h, cell line lysate: HEK293T
Method: (§1)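 IA-DTB competitive cysteine chemoproteomics in HEK293T RIPA lysate. Lysates were treated with compound 29 or 30 at 50 or 200 µM for 4 h, then IA-DTB (500 µM, 1 h), trypsin-digested, NeutrAvidin-enriched and analysed by diaPASEF. Competition ratio = intensity DMSO / intensity compound (n=4 treated, n=64 DMSO); binding: mean log2 CR ≥ 1 and p ≤ 0.05 plus QC filters. Target is the cysteine site.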

[2] = compound: ClCC(=O)N[C@H]1CCCc2ccccc12; experiment: as above; settings: treatment time: 4 h, cell line lysate: HEK293T
Method: as §1

| Target | log2 mean competition ratio ([1]; 50 µM) | log2 mean competition ratio ([1]; 200 µM) | log2 mean competition ratio ([2]; 50 µM) | log2 mean competition ratio ([2]; 200 µM) |
| --- | --- | --- | --- | --- |
| RRP1B C386 (UniProt Q14684) | 0.115 | -0.61 | 0.738 | -0.367 |
| RPL5 C76 (UniProt P46777) | 0.127 | -0.362 | -0.0653 | -0.468 |
| SACS C3203 (UniProt Q9NZJ4) | – | 0.174 | 0.401 | 0.075 |
| RTEL1 C136 (UniProt Q9NZ71) | 0.0563 | 0.117 | -0.0598 | 0.26 |
| SACS C2976 (UniProt Q9NZJ4) | 0.522 | -0.105 | -0.408 | -0.271 |
| RPL4 C96 (UniProt P36578) | 0.097 | 0.0295 | 0.124 | 0.111 |
